The chains are these.
B1: VH clone 2.1 (VHH)
VHH: QVQLVQSGAEVKKPGASVKVSCKASGYPFTSYDINWVRQATGQSLEWMGWMNPNSGDTVYAQKFQGRVTMTRNTSISTAYMELSSLRSEDTAVYFCARGRRDDWKNNYWGQGTLVTVSS
B2: VH 62A4 (VHH)
VHH: QVQLVESGGGLVQPGRSLTLSCTASGFTFHDYAMHWVRQPPGGGLEWVAGVSWNGNNVGYADSVKGRFTISRDNAKKSLYLQMNSLRSEDTALYYCAKGGMGSGSHPDSFSTWGQGTMVTVSS
B3: VH clone 1.2 (VHH)
VHH: EVQLVESGGGLVQPGRSLRLSCAASGFTFDDYAMHWVRQAPGKGLEWVSGISWNSGRMDYADSVKGRFTISRDNAKNSLYLQMNSLRAEDTALYYCAKEKGLGYCRGGSCSYFDYRGQGTLVTVSS
B4: VH clone 1.1 (VHH)
VHH: QVQLVESGGGLVQPGRSLRLSCAASGFTFDDYAMHWVRQAPGKGLEWVSGISWNSGRMDYADSVKGRFTISRDNAKKSLYLQMNSLRAEDTAMYYCAKEKGLGFCRGGSCSYFDYRGQGTLVTVSS

By UniProt entry, the sequences of proteins in these tests, tags left out. Where a name states a change or a piece, a line headed by the entry shows the natural chain unless it says otherwise.
UniProt Q8NAC3: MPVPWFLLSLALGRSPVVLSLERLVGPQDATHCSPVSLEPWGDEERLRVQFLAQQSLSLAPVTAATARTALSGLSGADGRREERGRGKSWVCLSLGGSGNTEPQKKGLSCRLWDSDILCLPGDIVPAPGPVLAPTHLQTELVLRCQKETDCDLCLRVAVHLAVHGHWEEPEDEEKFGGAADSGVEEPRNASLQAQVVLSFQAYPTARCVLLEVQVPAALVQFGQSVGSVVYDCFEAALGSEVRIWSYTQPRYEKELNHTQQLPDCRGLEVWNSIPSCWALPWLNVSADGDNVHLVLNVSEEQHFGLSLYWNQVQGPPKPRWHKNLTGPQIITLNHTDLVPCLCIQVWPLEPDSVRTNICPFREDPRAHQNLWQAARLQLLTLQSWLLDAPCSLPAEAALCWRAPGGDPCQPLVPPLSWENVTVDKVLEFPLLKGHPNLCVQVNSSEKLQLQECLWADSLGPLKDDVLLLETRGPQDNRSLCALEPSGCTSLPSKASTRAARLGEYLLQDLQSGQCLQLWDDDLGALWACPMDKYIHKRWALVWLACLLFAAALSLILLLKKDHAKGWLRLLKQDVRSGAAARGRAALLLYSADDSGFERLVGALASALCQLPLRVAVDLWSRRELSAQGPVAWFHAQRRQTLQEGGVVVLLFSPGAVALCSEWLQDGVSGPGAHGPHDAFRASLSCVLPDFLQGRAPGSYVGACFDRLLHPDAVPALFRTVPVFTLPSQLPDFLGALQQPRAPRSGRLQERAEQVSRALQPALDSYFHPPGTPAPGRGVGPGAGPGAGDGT

These are yes or no findings as the source states them, for the method shown.

This assay addresses IL-17RC (UniProt Q8NAC3). The assay can be described thus: specificity ELISA, antigen coated, anti-His-HRP detection. For orientation: An ELISA detects its analyte on a solid surface through an enzyme-linked reagent.
For the molecule B1, the binding result was “no binding”. The entry for B2 is “no binding”; for B3 it is “no binding”.

Regarding B4, the binding result is reported as “no binding”.

The record behind these values is patent publication US20180215829A1.
